# Melanoma cell counts after drug treatment

Data from the primary screen of doi:10.1371/journal.pone.0140310, rounded.

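Human melanoma cells were exposed to two drugs together for 72 h in 1,536-well plates and read by automated microscopy after fixing and staining. The read-out is cell count (nuclei) in % of the DMSO control; lower values mean stronger growth inhibition or killing. Every drug was used at one fixed concentration, the lower of two screened (a fifth of the higher). No replicate spread is given; individual values may be noisy.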
Only some of the drugs and lines screened are listed, without regard to their results.
An entry leaves out what has no value listed here.
A dash means that no value is listed here.

Compounds and concentrations:
XAV939: Oc1nc(-c2ccc(C(F)(F)F)cc2)nc2c1CSCC2 at 2 µM
temozolomide: Cn1nnc2c(C(N)=O)ncn2c1=O at 2 µM
etoposide: COc1cc([C@@H]2c3cc4c(cc3[C@@H](O[C@@H]3O[C@@H]5CO[C@@H](C)O[C@H]5[C@H](O)[C@H]3O)[C@H]3COC(=O)[C@H]23)OCO4)cc(OC)c1O at 0.02 µM
sunitinib: CCN(CC)CCNC(=O)c1c(C)[nH]c(/C=C2\C(=O)Nc3ccc(F)cc32)c1C at 0.4 µM
pioglitazone: CCc1ccc(CCOc2ccc(CC3SC(=O)NC3=O)cc2)nc1 (stereo not drawn) at 2 µM
veliparib: C[C@]1(c2nc3c(C(N)=O)cccc3[nH]2)CCCN1 at 1.4 µM
selumetinib: Cn1cnc2c(F)c(Nc3ccc(Br)cc3Cl)c(C(=O)NOCCO)cc21 at 0.015 µM
GW9662: O=C(Nc1ccccc1)c1cc([N+](=O)[O-])ccc1Cl at 2 µM

Combination,COLO 829,MEL-HO,501mel,LOX IMVI
pioglitazone and GW9662,95.0,91.8,95.5,94.1
XAV939 and veliparib,95.3,97.6,86.3,79.5
selumetinib and GW9662,156,94.1,-,136
etoposide and selumetinib,117,87.5,-,92.7
pioglitazone and etoposide,78.1,100,110,115
GW9662 and XAV939,91.5,99.0,99.1,115
temozolomide and GW9662,74.4,103,106,70.5
XAV939 and etoposide,160,95.0,95.0,125
pioglitazone and veliparib,91.6,84.4,115,47.8
sunitinib and etoposide,120,111,-,110
pioglitazone and sunitinib,121,92.2,95.4,100
temozolomide and XAV939,82.5,94.9,-,90.8
veliparib and sunitinib,122,89.5,-,96.9
temozolomide and etoposide,106,108,-,78.7
sunitinib and GW9662,95.3,99.2,-,98.2
sunitinib and XAV939,112,94.8,76.0,141
XAV939 and selumetinib,130,93.6,-,122
veliparib and temozolomide,82.3,97.0,-,132
veliparib and GW9662,87.7,90.8,85.6,83.4
etoposide and veliparib,102,106,-,110
selumetinib and temozolomide,129,96.8,-,121
selumetinib and veliparib,105,96.2,-,95.5
sunitinib and selumetinib,141,110,-,161
pioglitazone and selumetinib,113,87.4,-,95.1
pioglitazone and XAV939,111,90.0,92.3,88.3
GW9662 and etoposide,89.8,95.5,97.0,64.1
pioglitazone and temozolomide,78.3,99.3,86.8,94.8

The first 3 entries again:

{"combination": "pioglitazone and GW9662", "COLO 829": 95.0, "MEL-HO": 91.8, "501mel": 95.5, "LOX IMVI": 94.1}
{"combination": "XAV939 and veliparib", "COLO 829": 95.3, "MEL-HO": 97.6, "501mel": 86.3, "LOX IMVI": 79.5}
{"combination": "selumetinib and GW9662", "COLO 829": 156, "MEL-HO": 94.1, "LOX IMVI": 136}